Data as given in PubChem BioAssay AID504808 (Drosophila RNAi Screening Center, 2011).
In all, the deposit lists about 21,000 reagents; below is an unselected part of those that have a named target and a result. In the full data, 18 (0.084%) are marked active. 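Raw counts without plate normalisation, one of two replicates; the ratio scores behind the calls were not deposited.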 A number with no mark means an inactive call. Reagents against one gene are numbered here. No sequences are given here. Not given: the amount of reagent, the time to read-out.

Aim: 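Fly genes required to hold E2F transcription in check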 (primary screen)
Cells: Drosophila S2 cells
Reagent: long dsRNA against Drosophila genes
Read-out: 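Dual luciferase plate measurements; E2F-specific signal taken as firefly over Renilla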
Scale: E2F firefly: higher = more E2F reporter activity; Renilla normaliser: higher = more normaliser reporter signal
Hit rule: 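a knock-down counted as active when the firefly/Renilla E2F signal rose above 50%, a threshold chosen arbitrarily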

After knock-down of CG33978, the screen gave E2F firefly, rep 1 = 78234; Renilla normaliser, rep 1 = 2430. Knock-down of CCHa2 (CCHamide-2) came out at: E2F firefly, rep 1 = 1.20e5; Renilla normaliser, rep 1 = 6413. After knock-down of CG15210, the screen gave E2F firefly, rep 1 = 1.24e5; Renilla normaliser, rep 1 = 5580. After knock-down of Dna2 (DNA replication helicase/nuclease 2), the record shows E2F firefly, rep 1 = 8100; Renilla normaliser, rep 1 = 692. After knock-down of CG14669 #1, the record shows E2F firefly, rep 1 = 64733; Renilla normaliser, rep 1 = 3759. With knock-down of CG14669 #2, the record shows E2F firefly, rep 1 = 80659; Renilla normaliser, rep 1 = 3733.

CG14669 #3 scored E2F firefly, rep 1 = 94446; Renilla normaliser, rep 1 = 4172. For CG14669 #4, the values are E2F firefly, rep 1 = 1.38e5; Renilla normaliser, rep 1 = 6949. With knock-down of CG13047 the results were E2F firefly, rep 1 = 1.81e5; Renilla normaliser, rep 1 = 9066. Against CG5050, the values are E2F firefly, rep 1 = 1.11e5; Renilla normaliser, rep 1 = 5071. For zda (zonda), the entry reads E2F firefly, rep 1 = 64492; Renilla normaliser, rep 1 = 2956. Knock-down of Catsup (Catecholamines up) gave: E2F firefly, rep 1 = 1.02e5; Renilla normaliser, rep 1 = 4975.

Depletion of CG30269 came out at: E2F firefly, rep 1 = 94342; Renilla normaliser, rep 1 = 3856. Knock-down of CG10340 came out at: E2F firefly, rep 1 = 70312; Renilla normaliser, rep 1 = 3799. For Lac (Lachesin), the entry reads E2F firefly, rep 1 = 3282; Renilla normaliser, rep 1 = 200. With knock-down of Rpn13R (Regulatory particle non-ATPase 13-related), the record shows E2F firefly, rep 1 = 46325; Renilla normaliser, rep 1 = 3391.

Individual results from above:
Result of CG5050 under “Renilla normaliser, rep 1”: 5071
Value for CG10340 under “Renilla normaliser, rep 1”: 3799
For “Renilla normaliser, rep 1”, Rpn13R (Regulatory particle non-ATPase 13-related) shows 3391
Under “Renilla normaliser, rep 1”, Dna2 (DNA replication helicase/nuclease 2) shows 692

The list goes on:
Depletion of EndoB (Endophilin B) came out at: E2F firefly, rep 1 = 1.43e5; Renilla normaliser, rep 1 = 4898. Silencing of CG43127 came out at: E2F firefly, rep 1 = 1.28e5; Renilla normaliser, rep 1 = 4936. Depletion of HtrA2 (HTRA2-related serine protease) gave: E2F firefly, rep 1 = 1.15e5; Renilla normaliser, rep 1 = 5604. With knock-down of Gr22f (Gustatory receptor 22f), the record shows E2F firefly, rep 1 = 1.39e5; Renilla normaliser, rep 1 = 6823. Depletion of CG12362 gave: E2F firefly, rep 1 = 1.04e5; Renilla normaliser, rep 1 = 4604. With knock-down of Nepl6 (Neprilysin-like 6), the screen gave E2F firefly, rep 1 = 46577; Renilla normaliser, rep 1 = 3682.

ro (rough) showed E2F firefly, rep 1 = 81868; Renilla normaliser, rep 1 = 4948. With knock-down of CG2765, the record shows E2F firefly, rep 1 = 81315; Renilla normaliser, rep 1 = 3490. AIMP3 (aaRS-interacting multifunctional protein 3) gave E2F firefly, rep 1 = 1.11e5; Renilla normaliser, rep 1 = 4218. For CG15673, the values are E2F firefly, rep 1 = 99855; Renilla normaliser, rep 1 = 4559. Depletion of Rcd6 (Reduction in Cnn dots 6) resulted in: E2F firefly, rep 1 = 67165; Renilla normaliser, rep 1 = 3052. Pcd (pterin-4a-carbinolamine dehydratase) gave E2F firefly, rep 1 = 1.24e5; Renilla normaliser, rep 1 = 6057.
